Test results reported in paper PMC10182654, “The pattern of histone H3 epigenetic posttranslational modifications is regulated by the VRK1 chromatin kinase” (Epigenetics & Chromatin, 2023).
These are yes or no findings as the source states them, for the method shown. In cells and extracts the contact can be indirect. Some entries that bind do so weakly or less than the wild type. Sequences can lack the tags named with a protein.

The chains behind the UniProt entries cited, without tags or fusion partners.
UniProt Q13547: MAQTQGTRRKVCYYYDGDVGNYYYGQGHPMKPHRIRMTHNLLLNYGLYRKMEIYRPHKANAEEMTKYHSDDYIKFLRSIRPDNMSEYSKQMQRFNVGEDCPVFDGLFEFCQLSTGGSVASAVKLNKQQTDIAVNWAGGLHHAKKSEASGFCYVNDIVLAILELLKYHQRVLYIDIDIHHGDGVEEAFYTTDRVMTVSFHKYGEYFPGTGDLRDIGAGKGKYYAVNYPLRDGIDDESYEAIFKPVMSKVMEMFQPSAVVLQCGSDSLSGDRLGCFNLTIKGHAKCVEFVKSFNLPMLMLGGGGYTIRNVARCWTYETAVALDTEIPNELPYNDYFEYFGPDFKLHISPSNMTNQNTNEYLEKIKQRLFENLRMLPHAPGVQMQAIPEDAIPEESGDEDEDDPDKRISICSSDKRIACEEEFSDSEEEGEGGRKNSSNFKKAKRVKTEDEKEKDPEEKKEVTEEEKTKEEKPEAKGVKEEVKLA
UniProt Q92831: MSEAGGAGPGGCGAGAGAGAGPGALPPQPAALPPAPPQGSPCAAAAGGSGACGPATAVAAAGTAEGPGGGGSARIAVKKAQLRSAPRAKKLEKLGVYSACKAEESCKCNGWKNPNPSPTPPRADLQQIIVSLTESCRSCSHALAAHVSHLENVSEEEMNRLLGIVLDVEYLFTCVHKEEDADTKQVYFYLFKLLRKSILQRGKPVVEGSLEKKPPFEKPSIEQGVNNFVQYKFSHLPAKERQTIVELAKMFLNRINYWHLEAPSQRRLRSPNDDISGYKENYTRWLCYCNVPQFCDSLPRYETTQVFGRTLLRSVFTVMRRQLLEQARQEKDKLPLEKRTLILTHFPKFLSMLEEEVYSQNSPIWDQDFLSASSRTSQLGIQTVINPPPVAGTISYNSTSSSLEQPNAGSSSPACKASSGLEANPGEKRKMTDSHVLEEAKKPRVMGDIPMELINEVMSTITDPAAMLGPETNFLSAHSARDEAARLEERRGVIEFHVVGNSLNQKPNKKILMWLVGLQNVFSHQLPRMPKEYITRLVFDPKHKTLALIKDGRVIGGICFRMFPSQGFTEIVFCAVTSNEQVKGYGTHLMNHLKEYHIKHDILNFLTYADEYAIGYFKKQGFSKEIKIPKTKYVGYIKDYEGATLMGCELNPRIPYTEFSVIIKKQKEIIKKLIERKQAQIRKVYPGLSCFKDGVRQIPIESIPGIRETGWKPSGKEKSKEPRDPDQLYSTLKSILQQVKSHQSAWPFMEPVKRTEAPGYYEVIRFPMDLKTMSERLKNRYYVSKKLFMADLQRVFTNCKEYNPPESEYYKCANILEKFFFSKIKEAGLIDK

B1: KDM3A (JMJD1A)-V5 (enzyme, UniProt Q9Y4C1 1-1321)
chain: MVLTLGESWPVLVGRRFLSLSAADGSDGSHDSWDVERVAEWPWLSGTIRAVSHTDVTKKDLKVCVEFDGESWRKRRWIEVYSLLRRAFLVEHNLVLAERKSPEISERIVQWPAITYKPLLDKAGLGSITSVRFLGDQQRVFLSKDLLKPIQDVNSLRLSLTDNQIVSKEFQALIVKHLDESHLLKGDKNLVGSEVKIYSLDPSTQWFSATVINGNPASKTLQVNCEEIPALKIVDPSLIHVEVVHDNLVTCGNSARIGAVKRKSSENNGTLVSKQAKSCSEASPSMCPVQSVPTTVFKEILLGCTAATPPSKDPRQQSTPQAANSPPNLGAKIPQGCHKQSLPEEISSCLNTKSEALRTKPDVCKAGLLSKSSQIGTGDLKILTEPKGSCTQPKTNTDQENRLESVPQALTGLPKECLPTKASSKAELEIANPPELQKHLEHAPSPSDVSNAPEVKAGVNSDSPNNCSGKKVEPSALACRSQNLKESSVKVDNESCCSRSNNKIQNAPSRKSVLTDPAKLKKLQQSGEAFVQDDSCVNIVAQLPKCRECRLDSLRKDKEQQKDSPVFCRFFHFRRLQFNKHGVLRVEGFLTPNKYDNEAIGLWLPLTKNVVGIDLDTAKYILANIGDHFCQMVISEKEAMSTIEPHRQVAWKRAVKGVREMCDVCDTTIFNLHWVCPRCGFGVCVDCYRMKRKNCQQGAAYKTFSWLKCVKSQIHEPENLMPTQIIPGKALYDVGDIVHSVRAKWGIKANCPCSNRQFKLFSKPASKEDLKQTSLAGEKPTLGAVLQQNPSVLEPAAVGGEAASKPAGSMKPACPASTSPLNWLADLTSGNVNKENKEKQPTMPILKNEIKCLPPLPPLSKSSTVLHTFNSTILTPVSNNNSGFLRNLLNSSTGKTENGLKNTPKILDDIFASLVQNKTTSDLSKRPQGLTIKPSILGFDTPHYWLCDNRLLCLQDPNNKSNWNVFRECWKQGQPVMVSGVHHKLNSELWKPESFRKEFGEQEVDLVNCRTNEIITGATVGDFWDGFEDVPNRLKNEKEPMVLKLKDWPPGEDFRDMMPSRFDDLMANIPLPEYTRRDGKLNLASRLPNYFVRPDLGPKMYNAYGLITPEDRKYGTTNLHLDVSDAANVMVYVGIPKGQCEQEEEVLKTIQDGDSDELTIKRFIEGKEKPGALWHIYAAKDTEKIREFLKKVSEEQGQENPADHDPIHDQSWYLDRSLRKRLHQEYGVQGWAIVQFLGDVVFIPAGAPHQVHNLYSCIKVAEDFVSPEHVKHCFWLTQEFRYLSQTHTNHEDKLQVKNVIYHAVKDAVAMLKASESSFGKP
B2: KDM4A (JMJD2A)-HA (enzyme, UniProt O75164 1-1064)
chain: MASESETLNPSARIMTFYPTMEEFRNFSRYIAYIESQGAHRAGLAKVVPPKEWKPRASYDDIDDLVIPAPIQQLVTGQSGLFTQYNIQKKAMTVREFRKIANSDKYCTPRYSEFEELERKYWKNLTFNPPIYGADVNGTLYEKHVDEWNIGRLRTILDLVEKESGITIEGVNTPYLYFGMWKTSFAWHTEDMDLYSINYLHFGEPKSWYSVPPEHGKRLERLAKGFFPGSAQSCEAFLRHKMTLISPLMLKKYGIPFDKVTQEAGEFMITFPYGYHAGFNHGFNCAESTNFATRRWIEYGKQAVLCSCRKDMVKISMDVFVRKFQPERYKLWKAGKDNTVIDHTLPTPEAAEFLKESELPPRAGNEEECPEEDMEGVEDGEEGDLKTSLAKHRIGTKRHRVCLEIPQEVSQSELFPKEDLSSEQYEMTECPAALAPVRPTHSSVRQVEDGLTFPDYSDSTEVKFEELKNVKLEEEDEEEEQAAAALDLSVNPASVGGRLVFSGSKKKSSSSLGSGSSRDSISSDSETSEPLSCRAQGQTGVLTVHSYAKGDGRVTVGEPCTRKKGSAARSFSERELAEVADEYMFSLEENKKSKGRRQPLSKLPRHHPLVLQECVSDDETSEQLTPEEEAEETEAWAKPLSQLWQNRPPNFEAEKEFNETMAQQAPHCAVCMIFQTYHQVEFGGFNQNCGNASDLAPQKQRTKPLIPEMCFTSTGCSTDINLSTPYLEEDGTSILVSCKKCSVRVHASCYGVPPAKASEDWMCSRCSANALEEDCCLCSLRGGALQRANDDRWVHVSCAVAILEARFVNIAERSPVDVSKIPLPRFKLKCIFCKKRRKRTAGCCVQCSHGRCPTAFHVSCAQAAGVMMQPDDWPFVVFITCFRHKIPNLERAKGALQSITAGQKVISKHKNGRFYQCEVVRLTTETFYEVNFDDGSFSDNLYPEDIVSQDCLQFGPPAEGEVVQVRWTDGQVYGAKFVASHPIQMYQVEFEDGSQLVVKRDDVYTLDEELPKRVKSRLSVASDMRFNEIFTEKEVKQEKKRQRVINSRYREDYIEPALYRAIME

Target: T1, endogenous VRK1 (human (endogenous in HEK293T)) (UniProt Q99986)
T1 sequence: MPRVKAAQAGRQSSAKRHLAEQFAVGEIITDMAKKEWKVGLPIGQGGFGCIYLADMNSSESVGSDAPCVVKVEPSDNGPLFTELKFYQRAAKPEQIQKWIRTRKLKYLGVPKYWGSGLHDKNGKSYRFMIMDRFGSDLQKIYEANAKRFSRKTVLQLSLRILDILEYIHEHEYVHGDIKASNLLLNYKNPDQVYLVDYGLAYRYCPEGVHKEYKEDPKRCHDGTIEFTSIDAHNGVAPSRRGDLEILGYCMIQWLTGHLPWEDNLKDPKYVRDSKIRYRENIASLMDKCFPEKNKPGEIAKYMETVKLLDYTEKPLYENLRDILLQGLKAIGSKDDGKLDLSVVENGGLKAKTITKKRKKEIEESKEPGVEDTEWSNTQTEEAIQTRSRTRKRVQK
Experiment: co-IP; 0.5–1 mg whole-cell extracts of transfected HEK293T cells; specific antibody 6–8 h at 4, then Protein G–Agarose overnight at 4 °C; immunoblot; increasing amounts of transfected plasmid in some panels

binding, binds:
HDAC1-Flag (from UniProt Q13547 1-482) (enzyme)
B1
B2

Target: T2, VRK1-HA (human) (UniProt Q99986)
T2 sequence: T1 sequence
Experiment: as above

binding, binds:
PCAF-Flag (from UniProt Q92831 1-832) (enzyme)
B1
B2
